# PubChem BioAssay AID686938, Drosophila RNAi Screening Center, 2013
# Purpose: 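Looking for CRAC channel components and the factors controlling them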 (primary screen)
# Cell system: Drosophila S2R+ cells
# Reagent: long dsRNA against Drosophila genes, about 0.25 µg dsRNA per well, roughly 10,000 cells
# Duration: 5 days of knock-down before the calcium assay
# Challenge: thapsigargin (SERCA pump blocker) to empty calcium stores; entry signal taken 4 min after adding it
# Detection: 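Duplicate raw fluo-4 intensities per well from a plate reader, at rest and four minutes after thapsigargin emptied calcium stores; entry-to-rest ratio filled for only some wells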
# Direction: calcium entry signal: higher = stronger calcium signal after store depletion; resting calcium signal: higher = higher resting calcium signal
# Hit rule: 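Hit if the duplicate-averaged plate z-score for entry over resting signal is under −3; wells with weak total dye signal (Fmax z < −2) or more than 5 off-targets removed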
# Meaning of the calls: active = strongly reduced calcium entry; inactive = no strong reduction
# The deposit covers about 23,000 reagents; below is a random part of those with a known target gene and a result. Over the whole deposit, 75 (0.33%) are marked active. 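Raw plate signals without normalisation; calls rest on plate z-scores that were not deposited; ratio present for only 364 wells.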 Unmarked entries are inactive. Reagents against one gene are numbered here. Not stated in the record: the dose of the treatment.
Target gene,reagent no.,"calcium entry signal, replicate 1 (fluorescence units)","calcium entry signal, replicate 2 (fluorescence units)","resting calcium signal, replicate 1 (fluorescence units)","resting calcium signal, replicate 2 (fluorescence units)"
CG9981 (GeneID 32609),1,2.23e7,2.41e7,1.20e7,1.17e7
pn (GeneID 31194),1,2.77e7,3.67e7,1.32e7,1.73e7
CG13059 (GeneID 39803),1,3.76e7,3.57e7,1.73e7,1.69e7
CG33310 (GeneID 2768910),1,3.54e7,2.30e7,1.70e7,1.14e7
B52 (GeneID 41670),1,2.44e7,3.02e7,1.06e7,1.49e7
Ccp84Ab (GeneID 40824),1,3.93e7,2.94e7,2.15e7,1.61e7
Acp65Aa (GeneID 38710),1,2.87e7,3.49e7,1.38e7,1.62e7
CG3513 (GeneID 33590),1,3.74e7,3.27e7,1.77e7,1.58e7
CG12360 (retired record) (GeneID 41603),1,2.53e7,5.04e7,1.31e7,8.84e7
Or33b (GeneID 34602),1,3.10e7,1.77e7,1.44e7,8.82e6
CG17264 (GeneID 33511),1,3.58e7,,2.04e7,
CG30357 (GeneID 246563),1,3.87e7,3.06e7,2.04e7,1.50e7
CG12861 (GeneID 36628),1,2.83e7,4.18e7,1.43e7,1.73e7
CG12861 (GeneID 36628),2,3.79e7,4.01e7,1.78e7,2.12e7
spag4 (GeneID 34581),1,3.74e7,4.83e7,1.81e7,2.04e7
Ctns (GeneID 42723),1,5.03e7,5.25e7,2.55e7,2.36e7
RpS21 (GeneID 33487),1,1.33e7,2.78e7,9.85e6,1.51e7
CG2898 (GeneID 31966),1,2.43e7,3.98e7,1.21e7,1.68e7
Rabex-5 (GeneID 38144),1,3.35e7,2.99e7,1.55e7,1.40e7
Ntf-2r (GeneID 35101),1,4.55e7,3.71e7,2.20e7,1.94e7
CG33233 (GeneID 2769005),1,4.16e7,4.43e7,2.12e7,1.96e7
CG13038 (GeneID 50268),1,8.43e7,8.77e7,3.07e7,3.12e7
CG8141 (GeneID 41622),1,2.46e7,4.68e7,1.22e7,6.25e7
Nurf-38 (GeneID 37922),1,4.72e7,4.33e7,2.61e7,2.49e7
CG34454 (GeneID 5740130),1,3.22e7,3.55e7,1.53e7,1.56e7
spoon (GeneID 31459),1,2.18e7,2.69e7,1.01e7,1.22e7

Targets listed so far whose target name begins with R or r (2):
Target gene,reagent no.,"calcium entry signal, replicate 1 (fluorescence units)","calcium entry signal, replicate 2 (fluorescence units)","resting calcium signal, replicate 1 (fluorescence units)","resting calcium signal, replicate 2 (fluorescence units)"
RpS21 (GeneID 33487),1,1.33e7,2.78e7,9.85e6,1.51e7
Rabex-5 (GeneID 38144),1,3.35e7,2.99e7,1.55e7,1.40e7

The listing continues:
Target gene,reagent no.,"calcium entry signal, replicate 1 (fluorescence units)","calcium entry signal, replicate 2 (fluorescence units)","resting calcium signal, replicate 1 (fluorescence units)","resting calcium signal, replicate 2 (fluorescence units)"
rad (retired record) (GeneID 32251),1,3.25e7,3.97e7,1.41e7,1.78e7
rad (retired record) (GeneID 32251),2,4.44e7,4.20e7,2.15e7,1.97e7
rad (retired record) (GeneID 32251),3,3.63e7,4.81e7,2.39e7,3.37e7
rad (retired record) (GeneID 32251),4,1.64e7,4.04e7,8.60e6,1.77e7
Ugt37D1 (GeneID 53511),1,3.90e7,2.20e7,1.82e7,1.11e7
CG1840 (GeneID 32150),1,2.62e7,2.82e7,1.39e7,1.47e7
Zasp52 (GeneID 36740),1,2.56e7,3.77e7,1.23e7,1.92e7
Zasp52 (GeneID 36740),2,2.65e7,5.01e7,1.18e7,2.33e7
Loxl2 (GeneID 37485),1,3.44e7,,1.68e7,
Oga (GeneID 42518),1,5.03e7,3.91e7,2.39e7,1.76e7
Or42b (GeneID 35516),1,4.55e7,4.72e7,2.22e7,1.99e7
Mt2 (GeneID 34632),1,3.39e7,2.14e7,1.48e7,9.99e6
muskelin (GeneID 36386),1,3.53e7,3.60e7,1.84e7,1.69e7
CG31019 (GeneID 318558),1,2.42e7,3.18e7,1.16e7,1.26e7
Sirt7 (GeneID 43433),1,2.21e7,2.31e7,1.01e7,1.09e7
CG9806 (GeneID 31994),1,3.27e7,4.02e7,1.60e7,1.99e7
CG4822 (GeneID 33170),1,3.44e7,,1.71e7,
CG14086 (GeneID 40100),1,2.70e7,4.23e7,1.34e7,1.80e7
mld (GeneID 2768685),1,4.28e7,4.82e7,2.05e7,2.47e7
mld (GeneID 2768685),2,4.84e7,4.21e7,2.29e7,1.95e7
Sas-6 (GeneID 43555),1,4.21e7,6.09e7,2.21e7,2.70e7
Or45b (GeneID 35980),1,3.74e7,2.58e7,1.79e7,1.51e7
gro (GeneID 43162),1,4.54e7,5.26e7,2.01e7,2.14e7
Apl (GeneID 59216),1,3.98e7,5.98e7,1.85e7,2.20e7
Arl2 (GeneID 40993),1,2.55e7,2.00e7,1.20e7,1.00e7
lncRNA:CR32657 (GeneID 3772397),1,3.74e7,4.80e7,1.77e7,2.14e7
ZnT49B (GeneID 36393),1,3.60e7,4.13e7,1.94e7,1.80e7
CG6739 (GeneID 34037),1,2.93e7,4.09e7,1.64e7,1.93e7
Urm1 (GeneID 2768949),1,4.18e7,3.55e7,2.07e7,1.48e7
ry (GeneID 41605),1,3.76e7,4.70e7,1.62e7,2.03e7
CG31624 (GeneID 35393),1,4.45e7,,2.01e7,
CG31050 (GeneID 318571),1,4.17e7,3.51e7,1.85e7,1.83e7
